Measurements reported in PubChem BioAssay AID743121 (NCATS, 2013)
Test: 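Partners whose loss is lethal together with topoisomerase I blockade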 (primary screen). System: MDA-MB-231 cells, a human breast cancer line. Reagents: single siRNA against human genes, 20 nM siRNA (0.8 pmol per well). Time to read-out: 120 h (drug added 48 h after transfection, read 72 h later). Treatment: camptothecin 20 nM (about EC30) for 72 h; vehicle 0.1% DMSO in parallel plates. Detection: 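Cell viability by ATP luminescence (CellTiter-Glo) as % of non-targeting siRNA wells, and the log2 ratio of viability without drug over viability with camptothecin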. Direction: log2 vehicle/camptothecin viability: higher = stronger sensitisation to camptothecin; viability with camptothecin: higher = more viable cells. Active means: 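Active genes have an RSA gene-level p-value below 0.001, computed from the ratios of their separate siRNAs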.
The whole screen tested about 26,000 reagents; this is a random part of them. 167 of them (0.63%) count as active. 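Calls are per gene from RSA p-values that are not deposited; an individual active-marked siRNA can sensitise only weakly.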 Unmarked entries are inactive. Reagents against one gene are numbered here. Further read-outs or replicates are left out here. Reagent sequences are not shown.

| gene | reagent no. | log2 vehicle/camptothecin viability | viability with camptothecin (% of control) |
| --- | --- | --- | --- |
| KDM4A | 1 | -0.18 | 110 |
| KDM4A | 2 | -0.41 | 21.7 |
| KDM4A | 3 | -0.0104 | 45.9 |
| KDM4A | 4 | -0.528 | 41.3 |
| SLC7A1 | 1 | -0.155 | 61.8 |
| SLC7A1 | 2 | -0.0744 | 9.68 |
| SLC7A1 | 3 | -0.423 | 78.5 |
| SLC7A1 | 4 | -0.0684 | 113 |
| TRMT2B | 1 | 0.113 | 60.4 |
| TRMT2B | 2 | 0.176 | 88.7 |
| TRMT2B | 3 | -0.199 | 102 |
| TRMT2B | 4 | 0.551 | 71.5 |
| UQCRC2 | 1 | 0.972 | 18.2 |
| UQCRC2 | 2 | 0.125 | 55.4 |
| UQCRC2 | 3 | -0.309 | 68.9 |
| CBLC | 1 | 0.209 | 88.6 |
| CBLC | 2 | 0.0153 | 82 |
| BMAL2 | 1 | -0.385 | 77.2 |
| BMAL2 | 2 | -0.0544 | 101 |
| BMAL2 | 3 | 0.0664 | 68.9 |
| PTPRB | 1 | 0.0384 | 45.8 |
| PTPRB | 2 | -0.0316 | 72.2 |
| PTPRB | 3 | 0.0948 | 98.9 |
| PTPRB | 4 | -0.507 | 76.1 |
| SMYD1 | 1 | -0.0306 | 94.9 |
| SMYD1 | 2 | -0.307 | 60.3 |
| SMYD1 | 3 | -0.498 | 92.9 |
| SMYD1 | 4 | -0.668 | 51.3 |
| TRHR | 1 | -0.312 | 99.7 |
| TRHR | 2 | -0.324 | 145 |
| TRHR | 3 | -0.0153 | 69.6 |
| TRHR | 4 | -0.206 | 78.4 |
| PKD2 | 1 | -0.258 | 90.4 |
| PKD2 | 2 | -0.137 | 91.3 |
| PKD2 | 3 | -0.178 | 107 |
| PKD2 | 4 | -0.00463 | 92.2 |
| CLIC3 | 1 | 0.0324 | 102 |
| CLIC3 | 2 | -0.496 | 83.2 |
| CLIC3 | 3 | -0.384 | 61.8 |
| SORL1 | 1 | 0.0133 | 76.9 |
| SORL1 | 2 | 0.354 | 48.5 |
| SORL1 | 3 | -0.338 | 86.8 |
| OR1D4 | 1 | 0.0386 | 95.8 |
| OR1D4 | 2 | -0.109 | 96.2 |
| CDC14C | 1 | 0.0988 | 48.6 |
| CDC14C | 2 | 0.0571 | 73.9 |
| CDC14C | 3 | 0.128 | 58.5 |
| NLN | 1 | -0.099 | 105 |
| NLN | 2 | -0.0946 | 99 |
| NLN | 3 | -0.172 | 61.1 |
| NLN | 4 | 0.478 | 18.7 |
| TAS2R5 | 1 | -0.189 | 106 |
| TAS2R5 | 2 | -0.407 | 79.9 |
| TAS2R5 | 3 | -0.724 | 111 |
| TAS2R5 | 4 | 0.296 | 63.2 |
| PDK2 | 1 | -0.161 | 90.2 |
| PDK2 | 2 | -0.538 | 101 |
| PDK2 | 3 | 0.541 | 42.3 |
| PDK2 | 4 | -0.396 | 50.8 |
| TP63 | 1 | -0.134 | 107 |
| TP63 | 2 | -0.0943 | 90.6 |
| TP63 | 3 | -0.356 | 109 |
| TP63 | 4 | -0.298 | 69.1 |
| FEV | 1 | -0.15 | 103 |
| FEV | 2 | -0.446 | 91.2 |
| FEV | 3 | -0.0309 | 84.9 |
| FEV | 4 | -0.515 | 75.2 |
| MS4A1 | 1 | -0.0251 | 91.3 |
| MS4A1 | 2 | 0.0936 | 90.1 |
| MS4A1 | 3 | 0.175 | 48.1 |
| POLH | 1 | -0.193 | 46.7 |
| POLH | 2 | -0.219 | 95.9 |
| POLH | 3 | -0.333 | 99.5 |
| FUT2 | 1 | -0.17 | 48.9 |
| FUT2 | 2 | -0.275 | 70.6 |
| FUT2 | 3 | -0.281 | 94.3 |
| FUT2 | 4 | -0.58 | 57.7 |
| MARCHF2 | 1 | -0.74 | 24 |
| MARCHF2 | 2 | 0.00483 | 73.2 |
| MARCHF2 | 3 | 0.0922 | 85 |
| MARCHF2 | 4 | 0.988 | 55.9 |
| IL11 | 1 | -0.235 | 61.1 |
| IL11 | 2 | -0.302 | 76.4 |
| IL11 | 3 | -0.194 | 66 |
| IL11 | 4 | -0.41 | 44.5 |
| ADAMTS3 | 1 | -0.159 | 117 |
| ADAMTS3 | 2 | -0.288 | 50.9 |
| ADAMTS3 | 3 | -0.15 | 46.6 |
| ADAMTS3 | 4 | 0.0694 | 80.7 |

Single entries from the entries so far:
Value of PDK2 #1 in “viability with camptothecin (% of control)”: 90.2
BMAL2 #3, viability with camptothecin (% of control): 68.9
Under “log2 vehicle/camptothecin viability”, ADAMTS3 #4 reads 0.0694
MARCHF2 #1, viability with camptothecin (% of control): 24
PKD2 #2, log2 vehicle/camptothecin viability = -0.137
Result of KDM4A #2 in “log2 vehicle/camptothecin viability”: -0.41
